# Measured values taken from the supplement of paper PMC8728848.
# The other results are listed elsewhere or left out.
# B1: HA-00510 (Pseudomonas aeruginosa), Q02V39_PSEAB (protein)
# chain: GVPIVNIATPNGAGLSNNHFRDYNVGANGLILNNATGKTQGTQLGGIILGNPNLKGQAAQVILNQVTGGNRSTLAGYTEVAGQSARVIVANPHGITCQGCGFINTPRATLTTGKPIMDGQRLERFQVDGGDIVVEGAELNVGNLEQFDLITRSAKLNAKLYAKNLNIVTGRNDVQADSLQATPRAADGSEKPQLAIDSSALGGMYAGAIRLVGTEQGVGVKLAGDMAASGGDIRIDASGKLSLAQASSQGDLKIAAQAVELNGKTYAGGSAEIRSAEELVNRQS
# Columns and labels:
# Test in all cases: glycan array binding signal (z-score within array); higher = stronger binding
# Details in all cases: glycan notation: IUPAC condensed, linker removed
# [1] = target: Fuc(a1-2)[GalNAc(a1-3)]Gal(b1-3)GlcNAc(b1-3)GalNAc
# Summary of the method: (§1)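 The binding signal is a Z-score computed within each array. Data were drawn from 3228 arrays in the Consortium for Functional Glycomics database, restricted to those with a known protein sequence. Scores were averaged over arrays of the same protein sequence at different concentrations or buffers, and over linkers, and negative values can be taken as non-binding.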
# [2] = target: Fuc(a1-2)[GalNAc(a1-3)]Gal(b1-3)GlcNAc(b1-6)GalNAc
# Summary of the method: as §1
# [3] = target: Fuc(a1-2)[GalNAc(a1-3)]Gal(b1-4)Glc
# Summary of the method: as §1
# [4] = target: Fuc(a1-2)[GalNAc(a1-3)]Gal(b1-4)GlcNAc
# Summary of the method: as §1
# [5] = target: Fuc(a1-2)[GalNAc(a1-3)]Gal(b1-4)GlcNAc(b1-2)Man
# Summary of the method: as §1
# [6] = target: Fuc(a1-2)[GalNAc(a1-3)]Gal(b1-4)GlcNAc(b1-2)Man(a1-3)[Fuc(a1-2)[GalNAc(a1-3)]Gal(b1-4)GlcNAc(b1-2)Man(a1-6)]Man(b1-4)GlcNAc(b1-4)GlcNAc
# Summary of the method: as §1
# [7] = target: Fuc(a1-2)[GalNAc(a1-3)]Gal(b1-4)GlcNAc(b1-2)Man(a1-3)[Fuc(a1-2)[GalNAc(a1-3)]Gal(b1-4)GlcNAc(b1-2)Man(a1-6)]Man(b1-4)GlcNAc(b1-4)[Fuc(a1-6)]GlcNAc
# Summary of the method: as §1
# [8] = target: Fuc(a1-2)[GalNAc(a1-3)]Gal(b1-4)GlcNAc(b1-3)Gal(b1-4)GlcNAc
# Summary of the method: as §1
# [9] = target: Fuc(a1-2)[GalNAc(a1-3)]Gal(b1-4)GlcNAc(b1-3)Gal(b1-4)GlcNAc(b1-3)Gal(b1-4)GlcNAc
# Summary of the method: as §1
# [10] = target: Fuc(a1-2)[GalNAc(a1-3)]Gal(b1-4)GlcNAc(b1-3)GalNAc
# Summary of the method: as §1
# [11] = target: Fuc(a1-2)[GalNAc(a1-3)]Gal(b1-4)GlcNAc(b1-3)[Fuc(a1-2)[GalNAc(a1-3)]Gal(b1-4)GlcNAc(b1-6)]GalNAc
# Summary of the method: as §1
# [12] = target: Fuc(a1-2)[GalNAc(a1-3)]Gal(b1-4)GlcNAc(b1-6)GalNAc
# Summary of the method: as §1
# [13] = target: Fuc(a1-2)[GalNAc(a1-3)]Gal(b1-4)[Fuc(a1-3)]GlcNAc
# Summary of the method: as §1
# [14] = target: Fuc(a1-2)[GalNAc(a1-3)]Gal(b1-4)[Fuc(a1-3)]GlcNAc(b1-3)GalNAc
# Summary of the method: as §1
# [15] = target: Fuc(a1-2)[GalNAc(a1-4)]Gal(b1-4)GlcNAc
# Summary of the method: as §1
# [16] = target: Fuc(a1-2)[GalNAc(b1-3)]Gal
# Summary of the method: as §1
# Fuc(a1-3)GlcNAc = target: Fuc(a1-3)GlcNAc
# Summary of the method: as §1
# [17] = target: Fuc(a1-3)[Gal(b1-4)]Glc6S
# Summary of the method: as §1
# [18] = target: Fuc(a1-3)[Gal(b1-4)]GlcNAc
# Summary of the method: as §1
# [19] = target: Fuc(a1-3)[Gal(b1-4)]GlcNAc(b1-2)Man
# Summary of the method: as §1
# [20] = target: Fuc(a1-3)[Gal(b1-4)]GlcNAc(b1-2)Man(a1-3)[Fuc(a1-3)[Gal(b1-4)]GlcNAc(b1-2)Man(a1-6)]Man(b1-4)GlcNAc(b1-4)GlcNAc
# Summary of the method: as §1
# [21] = target: Fuc(a1-3)[Gal(b1-4)]GlcNAc(b1-2)Man(a1-3)[Fuc(a1-3)[Gal(b1-4)]GlcNAc(b1-2)Man(a1-6)]Man(b1-4)GlcNAc(b1-4)[Fuc(a1-6)]GlcNAc
# Summary of the method: as §1
# [22] = target: Fuc(a1-3)[Gal(b1-4)]GlcNAc(b1-3)Gal(b1-3)[Fuc(a1-4)]GlcNAc
# Summary of the method: as §1
# [23] = target: Fuc(a1-3)[Gal(b1-4)]GlcNAc(b1-3)Gal(b1-4)[Fuc(a1-3)]GlcNAc
# Summary of the method: as §1
# [24] = target: Fuc(a1-3)[Gal(b1-4)]GlcNAc(b1-3)Gal(b1-4)[Fuc(a1-3)]GlcNAc(b1-3)Gal(b1-4)[Fuc(a1-3)]GlcNAc
# Summary of the method: as §1
# [25] = target: Fuc(a1-3)[Gal(b1-4)]GlcNAc(b1-3)GalNAc
# Summary of the method: as §1
# [26] = target: Fuc(a1-3)[Gal(b1-4)]GlcNAc(b1-6)GalNAc
# Summary of the method: as §1
# [27] = target: Fuc(a1-3)[Gal(b1-4)]GlcNAc(b1-6)[Gal(b1-3)GlcNAc(b1-3)]Gal(b1-4)Glc
# Summary of the method: as §1
# [28] = target: Fuc(a1-3)[Gal(b1-4)]GlcNAc6S
# Summary of the method: as §1
# [29] = target: Fuc(a1-3)[Gal3S(b1-4)]Glc
# Summary of the method: as §1
# [30] = target: Fuc(a1-3)[Gal3S(b1-4)]GlcNAc
# Summary of the method: as §1
# [31] = target: Fuc(a1-3)[Gal3S(b1-4)]GlcNAc6S
# Summary of the method: as §1
# [32] = target: Fuc(a1-3)[GalNAc(b1-4)]GlcNAc
# Summary of the method: as §1
# [33] = target: Fuc(a1-3)[GalNAc(b1-4)]GlcNAc6S
# Summary of the method: as §1
# Fuc(a1-4)GlcNAc = target: Fuc(a1-4)GlcNAc
# Summary of the method: as §1
# Fuc(b1-3)GlcNAc = target: Fuc(b1-3)GlcNAc
# Summary of the method: as §1
# Gal(a1-2)Gal = target: Gal(a1-2)Gal
# Summary of the method: as §1
# Gal(a1-3)Gal = target: Gal(a1-3)Gal
# Summary of the method: as §1
# Gal(a1-3)Gal(b1-3)GlcNAc = target: Gal(a1-3)Gal(b1-3)GlcNAc
# Summary of the method: as §1
# [34] = target: Gal(a1-3)Gal(b1-3)GlcNAc(b1-2)Man
# Summary of the method: as §1
# [35] = target: Gal(a1-3)Gal(b1-3)GlcNAc(b1-2)Man(a1-3)[Gal(a1-3)Gal(b1-3)GlcNAc(b1-2)Man(a1-6)]Man(b1-4)GlcNAc(b1-4)GlcNAc
# Summary of the method: as §1
# [36] = target: Gal(a1-3)Gal(b1-3)GlcNAc(b1-3)GalNAc
# Summary of the method: as §1
# [37] = target: Gal(a1-3)Gal(b1-3)GlcNAc(b1-6)GalNAc
# Summary of the method: as §1
# [38] = target: Gal(a1-3)Gal(b1-3)[Fuc(a1-4)]GlcNAc(b1-2)Man(a1-3)[Gal(a1-3)Gal(b1-3)[Fuc(a1-4)]GlcNAc(b1-2)Man(a1-6)]Man(b1-4)GlcNAc(b1-4)GlcNAc
# Summary of the method: as §1
# Gal(a1-3)Gal(b1-4)Glc = target: Gal(a1-3)Gal(b1-4)Glc
# Summary of the method: as §1
binder,measurement,setting,value
B1,glycan array binding signal (z-score),[1],2.45
same,glycan array binding signal (z-score),[2],-1.15
same,glycan array binding signal (z-score),[3],-0.409
same,glycan array binding signal (z-score),[4],-0.29
same,glycan array binding signal (z-score),[5],-0.439
same,glycan array binding signal (z-score),[6],-0.079
same,glycan array binding signal (z-score),[7],0.019
same,glycan array binding signal (z-score),[8],-0.94
same,glycan array binding signal (z-score),[9],-0.3
same,glycan array binding signal (z-score),[10],-0.573
same,glycan array binding signal (z-score),[11],-0.232
same,glycan array binding signal (z-score),[12],-0.493
same,glycan array binding signal (z-score),[13],-0.066
same,glycan array binding signal (z-score),[14],-0.355
same,glycan array binding signal (z-score),[15],0.364
same,glycan array binding signal (z-score),[16],1.12
same,glycan array binding signal (z-score),Fuc(a1-3)GlcNAc,0.219
same,glycan array binding signal (z-score),[17],-0.423
same,glycan array binding signal (z-score),[18],-0.22
same,glycan array binding signal (z-score),[19],-0.182
same,glycan array binding signal (z-score),[20],0.759
same,glycan array binding signal (z-score),[21],0.246
same,glycan array binding signal (z-score),[22],0.01
same,glycan array binding signal (z-score),[23],-0.869
same,glycan array binding signal (z-score),[24],-1.21
same,glycan array binding signal (z-score),[25],0.368
same,glycan array binding signal (z-score),[26],0.131
same,glycan array binding signal (z-score),[27],-0.343
same,glycan array binding signal (z-score),[28],-0.833
same,glycan array binding signal (z-score),[29],-0.052
same,glycan array binding signal (z-score),[30],-0.484
same,glycan array binding signal (z-score),[31],1.52
same,glycan array binding signal (z-score),[32],0.257
same,glycan array binding signal (z-score),[33],-1.05
same,glycan array binding signal (z-score),Fuc(a1-4)GlcNAc,1.52
same,glycan array binding signal (z-score),Fuc(b1-3)GlcNAc,0.691
same,glycan array binding signal (z-score),Gal(a1-2)Gal,-0.633
same,glycan array binding signal (z-score),Gal(a1-3)Gal,0.182
same,glycan array binding signal (z-score),Gal(a1-3)Gal(b1-3)GlcNAc,-0.035
same,glycan array binding signal (z-score),[34],0.009
same,glycan array binding signal (z-score),[35],-0.086
same,glycan array binding signal (z-score),[36],0.55
same,glycan array binding signal (z-score),[37],-0.434
same,glycan array binding signal (z-score),[38],-0.05
same,glycan array binding signal (z-score),Gal(a1-3)Gal(b1-4)Glc,-0.295

# In a second layout: entries from further up.
binder	measurement	setting	value
B1	glycan array binding signal (z-score)	[12]	-0.493
same	glycan array binding signal (z-score)	[13]	-0.066
same	glycan array binding signal (z-score)	[14]	-0.355
